Source: patent EP0490818B1, “6-CYCLOHEXYL-2'-0-METHYL-ADENOSINE HYDRATE AND USES THEREOF” (Novartis AG, priority 1990, dated 1992)
At least one compound was matched to its structure with a doubt left.

Tested on: A1 receptor
Details: ratio of A2 KD to A1 KD, pig striatal membranes

OC[C@H]1O[C@@H](n2cnc3c(NC4CCCC4)ncnc32)[C@H](O)[C@@H]1O [CPA, Cyclopentyladenosine]
A1:A2 selectivity: 1260
